Patent US20210130473A1, “TGFßR1 INHIBITOR-ASGR ANTIBODY CONJUGATES AND USES THEREOF” (Silverback Therapeutics, Inc., priority 2019, published 2021)
These are yes or no findings as the source states them, for the method shown. Some results given as binding are weak or reduced against the parent protein; the word gives no strength.

T1: ASGR1 (form and assay not stated) (Homo sapiens (Human)) (UniProt P07306)
T1 sequence: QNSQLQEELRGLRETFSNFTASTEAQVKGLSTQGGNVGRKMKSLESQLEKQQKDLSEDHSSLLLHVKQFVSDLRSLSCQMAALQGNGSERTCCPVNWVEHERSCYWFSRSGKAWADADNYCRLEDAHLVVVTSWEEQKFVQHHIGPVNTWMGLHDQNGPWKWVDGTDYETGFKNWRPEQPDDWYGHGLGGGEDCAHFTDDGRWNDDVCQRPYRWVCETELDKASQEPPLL

B1: J4F (parental chimeric antibody of Table 9) (antibody, IgG1, V domains shown)
VH: QVQLQQSGDDLVKPGASVKLSCKASGYTFTSYWINWIKQRPGQGLEWIGRIVPGSGSTYYNEMFKDKATLTVDTSSSTAYIQLSSLSSEDSAVYFCARKPNFDVWGAGTTVTVSS
VL: DIVMTQSQKFMSTSVGDRVSVTCKASQNVGTNVAWYQQKPGQSPKAVIYSASYRFSGVPDRLTGSGSGTDFTLTITNVQSEDLAEYFCQQYNSYPLTFGAGTKLELK
B2: hzJ4F-1 (antibody, IgG1, V domains shown)
VH: QVQLVQSGAEVKKPGASVKVSCKASGYTFTSYWINWVRQAPGQGLEWMGRIVPGSGSTYYNEMFKDRVTMTRDTSTSTVYMELSSLRSEDTAVYYCARKPNFDVWGQGTTVTVSS
VL: DIQMTQSPSSLSASVGDRVTITCKASQNVGTNVAWYQQKPGKAPKLLIYSASYRFSGVPSRFSGSGSGTDFTLTISSLQPEDFATYYCQQYNSYPLTFGGGTKVEIK
B3: hzJ4F-6 (antibody, IgG1, V domains shown)
VH: QVQLVQSGAEVKKPGASVKVSCKASGYTFTSYWINWVRQAPGQGLEWMGRIVPGSGSTYYNEMFKDRVTMTRDTSTSTVYMELSSLRSEDTAVYYCARKPNFDVWGQGTTVTVSS
VL: DIVMTQSPSSLSASVGDRVTITCKASQNVGTNVAWYQQKPGKAPKLLIYSASYRFSGVPSRFSGSGSGTDFTLTISSLQPEDFATYYCQQYNSYPLTFGGGTKVEIK
B4: hzJ4F-18 (antibody, IgG1, V domains shown)
VH: QVQLVQSGAEVKKPGASVKVSCKASGYTFTSYWINWVRQAPGQGLEWMGRIVPGSGSTYYNEMFKDKATMTRDTSTSTVYMELSSLRSEDTAVYYCARKPNFDVWGQGTTVTVSS
VL: DIVMTQSPSSLSASVGDRVTITCKASQNVGTNVAWYQQKPGKAPKALIYSASYRFSGVPSRFSGSGSGTDFTLTISSLQPEDFATYYCQQYNSYPLTFGGGTKVEIK
B5: hzJ4F-4 (antibody, IgG1, V domains shown)
VH: QVQLVQSGAEVKKPGASVKVSCKASGYTFTSYWINWVRQAPGQGLEWMGRIVPGSGSTYYNEMFKDRVTLTVDTSTSTVYMELSSLRSEDTAVYYCARKPNFDVWGQGTTVTVSS
VL: DIQMTQSPSSLSASVGDRVTITCKASQNVGTNVAWYQQKPGKAPKLLIYSASYRFSGVPSRFSGSGSGTDFTLTISSLQPEDFATYYCQQYNSYPLTFGGGTKVEIK
B6: hzJ4F-3 (antibody, IgG1, V domains shown)
VH: QVQLVQSGAEVKKPGASVKVSCKASGYTFTSYWINWVRQAPGQGLEWMGRIVPGSGSTYYNEMFKDKATMTRDTSTSTVYMELSSLRSEDTAVYYCARKPNFDVWGQGTTVTVSS
VL: DIQMTQSPSSLSASVGDRVTITCKASQNVGTNVAWYQQKPGKAPKLLIYSASYRFSGVPSRFSGSGSGTDFTLTISSLQPEDFATYYCQQYNSYPLTFGGGTKVEIK
B7: hzJ4F-8 (antibody, IgG1, V domains shown)
VH: QVQLVQSGAEVKKPGASVKVSCKASGYTFTSYWINWVRQAPGQGLEWMGRIVPGSGSTYYNEMFKDKATMTRDTSTSTVYMELSSLRSEDTAVYYCARKPNFDVWGQGTTVTVSS
VL: DIVMTQSPSSLSASVGDRVTITCKASQNVGTNVAWYQQKPGKAPKLLIYSASYRFSGVPSRFSGSGSGTDFTLTISSLQPEDFATYYCQQYNSYPLTFGGGTKVEIK
B8: hzJ4F-17 (antibody, IgG1, V domains shown)
VH: QVQLVQSGAEVKKPGASVKVSCKASGYTFTSYWINWVRQAPGQGLEWMGRIVPGSGSTYYNEMFKDKATLTVDTSTSTVYMELSSLRSEDTAVYYCARKPNFDVWGQGTTVTVSS
VL: DIVMTQSPSSLSASVGDRVTITCKASQNVGTNVAWYQQKPGKAPKALIYSASYRFSGVPSRFSGSGSGTDFTLTISSLQPEDFATYYCQQYNSYPLTFGGGTKVEIK
B9: hzJ4F-12 (antibody, IgG1, V domains shown)
VH: QVQLVQSGAEVKKPGASVKVSCKASGYTFTSYWINWVRQAPGQGLEWMGRIVPGSGSTYYNEMFKDKATLTVDTSTSTVYMELSSLRSEDTAVYYCARKPNFDVWGQGTTVTVSS
VL: DIQMTQSPSSLSASVGDRVTITCKASQNVGTNVAWYQQKPGKAPKALIYSASYRFSGVPSRFSGSGSGTDFTLTISSLQPEDFATYYCQQYNSYPLTFGGGTKVEIK
B10: hzJ4F-14 (antibody, IgG1, V domains shown)
VH: QVQLVQSGAEVKKPGASVKVSCKASGYTFTSYWINWVRQAPGQGLEWMGRIVPGSGSTYYNEMFKDRVTLTVDTSTSTVYMELSSLRSEDTAVYYCARKPNFDVWGQGTTVTVSS
VL: DIQMTQSPSSLSASVGDRVTITCKASQNVGTNVAWYQQKPGKAPKALIYSASYRFSGVPSRFSGSGSGTDFTLTISSLQPEDFATYYCQQYNSYPLTFGGGTKVEIK
B11: hzJ4F-19 (antibody, IgG1, V domains shown)
VH: QVQLVQSGAEVKKPGASVKVSCKASGYTFTSYWINWVRQAPGQGLEWMGRIVPGSGSTYYNEMFKDRVTLTVDTSTSTVYMELSSLRSEDTAVYYCARKPNFDVWGQGTTVTVSS
VL: DIVMTQSPSSLSASVGDRVTITCKASQNVGTNVAWYQQKPGKAPKALIYSASYRFSGVPSRFSGSGSGTDFTLTISSLQPEDFATYYCQQYNSYPLTFGGGTKVEIK
B12: hzJ4F-10 (antibody, IgG1, V domains shown)
VH: QVQLVQSGAEVKKPGASVKVSCKASGYTFTSYWINWVRQAPGQGLEWMGRIVPGSGSTYYNEMFKDRVTMTVDTSTSTVYMELSSLRSEDTAVYYCARKPNFDVWGQGTTVTVSS
VL: DIVMTQSPSSLSASVGDRVTITCKASQNVGTNVAWYQQKPGKAPKLLIYSASYRFSGVPSRFSGSGSGTDFTLTISSLQPEDFATYYCQQYNSYPLTFGGGTKVEIK
B13: hzJ4F-7 (antibody, IgG1, V domains shown)
VH: QVQLVQSGAEVKKPGASVKVSCKASGYTFTSYWINWVRQAPGQGLEWMGRIVPGSGSTYYNEMFKDKATLTVDTSTSTVYMELSSLRSEDTAVYYCARKPNFDVWGQGTTVTVSS
VL: DIVMTQSPSSLSASVGDRVTITCKASQNVGTNVAWYQQKPGKAPKLLIYSASYRFSGVPSRFSGSGSGTDFTLTISSLQPEDFATYYCQQYNSYPLTFGGGTKVEIK
B14: hzJ4F-2 (antibody, IgG1, V domains shown)
VH: QVQLVQSGAEVKKPGASVKVSCKASGYTFTSYWINWVRQAPGQGLEWMGRIVPGSGSTYYNEMFKDKATLTVDTSTSTVYMELSSLRSEDTAVYYCARKPNFDVWGQGTTVTVSS
VL: DIQMTQSPSSLSASVGDRVTITCKASQNVGTNVAWYQQKPGKAPKLLIYSASYRFSGVPSRFSGSGSGTDFTLTISSLQPEDFATYYCQQYNSYPLTFGGGTKVEIK
B15: hzJ4F-9 (antibody, IgG1, V domains shown)
VH: QVQLVQSGAEVKKPGASVKVSCKASGYTFTSYWINWVRQAPGQGLEWMGRIVPGSGSTYYNEMFKDRVTLTVDTSTSTVYMELSSLRSEDTAVYYCARKPNFDVWGQGTTVTVSS
VL: DIVMTQSPSSLSASVGDRVTITCKASQNVGTNVAWYQQKPGKAPKLLIYSASYRFSGVPSRFSGSGSGTDFTLTISSLQPEDFATYYCQQYNSYPLTFGGGTKVEIK
B16: hzJ4F-5 (antibody, IgG1, V domains shown)
VH: QVQLVQSGAEVKKPGASVKVSCKASGYTFTSYWINWVRQAPGQGLEWMGRIVPGSGSTYYNEMFKDRVTMTVDTSTSTVYMELSSLRSEDTAVYYCARKPNFDVWGQGTTVTVSS
VL: DIQMTQSPSSLSASVGDRVTITCKASQNVGTNVAWYQQKPGKAPKLLIYSASYRFSGVPSRFSGSGSGTDFTLTISSLQPEDFATYYCQQYNSYPLTFGGGTKVEIK
B17: hzJ4F-13 (antibody, IgG1, V domains shown)
VH: QVQLVQSGAEVKKPGASVKVSCKASGYTFTSYWINWVRQAPGQGLEWMGRIVPGSGSTYYNEMFKDKATMTRDTSTSTVYMELSSLRSEDTAVYYCARKPNFDVWGQGTTVTVSS
VL: DIQMTQSPSSLSASVGDRVTITCKASQNVGTNVAWYQQKPGKAPKALIYSASYRFSGVPSRFSGSGSGTDFTLTISSLQPEDFATYYCQQYNSYPLTFGGGTKVEIK
B18: hzJ4F-20 (antibody, IgG1, V domains shown)
VH: QVQLVQSGAEVKKPGASVKVSCKASGYTFTSYWINWVRQAPGQGLEWMGRIVPGSGSTYYNEMFKDRVTMTVDTSTSTVYMELSSLRSEDTAVYYCARKPNFDVWGQGTTVTVSS
VL: DIVMTQSPSSLSASVGDRVTITCKASQNVGTNVAWYQQKPGKAPKALIYSASYRFSGVPSRFSGSGSGTDFTLTISSLQPEDFATYYCQQYNSYPLTFGGGTKVEIK
B19: hzJ4F-11 (antibody, IgG1, V domains shown)
VH: QVQLVQSGAEVKKPGASVKVSCKASGYTFTSYWINWVRQAPGQGLEWMGRIVPGSGSTYYNEMFKDRVTMTRDTSTSTVYMELSSLRSEDTAVYYCARKPNFDVWGQGTTVTVSS
VL: DIQMTQSPSSLSASVGDRVTITCKASQNVGTNVAWYQQKPGKAPKALIYSASYRFSGVPSRFSGSGSGTDFTLTISSLQPEDFATYYCQQYNSYPLTFGGGTKVEIK
B20: hzJ4F-15 (antibody, IgG1, V domains shown)
VH: QVQLVQSGAEVKKPGASVKVSCKASGYTFTSYWINWVRQAPGQGLEWMGRIVPGSGSTYYNEMFKDRVTMTVDTSTSTVYMELSSLRSEDTAVYYCARKPNFDVWGQGTTVTVSS
VL: DIQMTQSPSSLSASVGDRVTITCKASQNVGTNVAWYQQKPGKAPKALIYSASYRFSGVPSRFSGSGSGTDFTLTISSLQPEDFATYYCQQYNSYPLTFGGGTKVEIK
B21: hzJ4F-16 (antibody, IgG1, V domains shown)
VH: QVQLVQSGAEVKKPGASVKVSCKASGYTFTSYWINWVRQAPGQGLEWMGRIVPGSGSTYYNEMFKDRVTMTRDTSTSTVYMELSSLRSEDTAVYYCARKPNFDVWGQGTTVTVSS
VL: DIVMTQSPSSLSASVGDRVTITCKASQNVGTNVAWYQQKPGKAPKALIYSASYRFSGVPSRFSGSGSGTDFTLTISSLQPEDFATYYCQQYNSYPLTFGGGTKVEIK

molecular target: T1, ASGR1 (form and assay not stated) (Homo sapiens (Human)); assay: binding screen, assay not described

binding, binds:
B1
B2
B3
B4
B5
B6
B7
B8
B9
B10
B11
B12
B13
B14
B15
B16
B17
B18
B19
B20
B21
